Literature values as cited in patent publication US20210274823A1, “NOVEL TRITERPENE-GLYCOSIDES AS SWEETENERS OR SWEETENER ENHANCER” (priority 2017, published 2021).
Some of these results come from one statement about several compounds together. At least one structure is not confirmed: it was looked up by name or label, or the drawing left a doubt.

Settings: literature statement (EP 3099186 A2, US 2011 0027413); 'often'; cited from earlier work

| Structure (SMILES) | sweeter than sucrose [×] |
| --- | --- |
| C[C@H](CC[C@@H](O[C@@H]1O[C@H](CO[C@@H]2O[C@H](CO)[C@@H](O)[C@H](O)[C@H]2O)[C@@H](O)[C@H](O)[C@H]1O[C@@H]1O[C@H](CO)[C@@H](O)[C@H](O)[C@H]1O)C(C)(C)O)[C@H]1CC[C@@]2(C)[C@@H]3CC=C4[C@@H](CC[C@H](O[C@@H]5O[C@H](CO)[C@@H](O[C@@H]6O[C@H](CO)[C@@H](O)[C@H](O)[C@H]6O)[C@H](O)[C@H]5O)C4(C)C)[C@]3(C)[C@H](O)C[C@]12C [iso-mogroside V] | > 100 |
| C[C@H](CC[C@@H](O[C@@H]1O[C@H](CO[C@@H]2O[C@H](CO)[C@@H](O)[C@H](O)[C@H]2O)[C@@H](O)[C@H](O)[C@H]1O[C@@H]1O[C@H](CO)[C@@H](O)[C@H](O)[C@H]1O)C(C)(C)O)[C@H]1CC[C@@]2(C)[C@@H]3CC=C4[C@@H](CC[C@H](O[C@@H]5O[C@H](CO[C@@H]6O[C@H](CO)[C@@H](O)[C@H](O)[C@H]6O)[C@@H](O)[C@H](O)[C@H]5O)C4(C)C)[C@]3(C)[C@H](O)C[C@]12C [mogroside V] | > 100 |
